Data as given in article PMC4239648.
Results are given in words; binding and its absence hold for the method and conditions named. A result given as binding can be weak or reduced; the word gives no strength. Where a sequence is shown, tags or fusion partners need not be part of it.

By UniProt entry, the sequences of proteins in these tests, tags left out. Where a name states a change or a piece, a line headed by the entry shows the natural chain unless it says otherwise.
UniProt Q9I749: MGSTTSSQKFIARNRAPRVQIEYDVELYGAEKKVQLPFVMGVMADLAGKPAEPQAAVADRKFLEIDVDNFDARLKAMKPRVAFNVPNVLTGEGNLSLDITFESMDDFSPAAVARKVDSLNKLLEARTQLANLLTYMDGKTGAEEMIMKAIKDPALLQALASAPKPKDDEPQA

Target: HsiB1, bacterial two-hybrid fusion (P. aeruginosa PAO1) (UniProt Q9I749)
Assay: two-hybrid; bacterial two-hybrid (BTH): T25 and T18 fusions of B. pertussis adenylate cyclase co-transformed in E. coli DHM1; spots on MacConkey maltose and X-gal LB agar, 30 °C, at least 48 h; β-galactosidase activity in Miller units

B1: HsiE1, bacterial two-hybrid fusion (protein, UniProt Q9I746 1-281)
chain: MADPSFASGRLGSRLQGSIAMIAEELLRAGRLDDALKALQEQVRSQPSNATLRIFLFQLLAVMGQWARAQNQLKVVGELDASALPMVQTYSTAIDCEALRREVFAGRLTPVILGQPAEWIAPLLQALSLDAEGHGEAAQALREQAFDAAPAVPGRIGEAPFAWLADADTRLGPVLEVIVNGRYAWLPMSNLRSLKVEAPSDLRDLVWLPAELTLANGGATVALLPARYAETVEHGDDAARLGRKTEWLDSGLPVGQRLFVTDAGETALFDLRELDFEPTDA
**Q.** With B1 as the binder, how does the binding read?
**A.** Its binding is “binds”.
